From publication PMC9841341 come the findings set out here.

The chains behind the UniProt entries cited, without tags or fusion partners. Residues count along the entry.
UniProt Q8CIZ8, residues 764-2813: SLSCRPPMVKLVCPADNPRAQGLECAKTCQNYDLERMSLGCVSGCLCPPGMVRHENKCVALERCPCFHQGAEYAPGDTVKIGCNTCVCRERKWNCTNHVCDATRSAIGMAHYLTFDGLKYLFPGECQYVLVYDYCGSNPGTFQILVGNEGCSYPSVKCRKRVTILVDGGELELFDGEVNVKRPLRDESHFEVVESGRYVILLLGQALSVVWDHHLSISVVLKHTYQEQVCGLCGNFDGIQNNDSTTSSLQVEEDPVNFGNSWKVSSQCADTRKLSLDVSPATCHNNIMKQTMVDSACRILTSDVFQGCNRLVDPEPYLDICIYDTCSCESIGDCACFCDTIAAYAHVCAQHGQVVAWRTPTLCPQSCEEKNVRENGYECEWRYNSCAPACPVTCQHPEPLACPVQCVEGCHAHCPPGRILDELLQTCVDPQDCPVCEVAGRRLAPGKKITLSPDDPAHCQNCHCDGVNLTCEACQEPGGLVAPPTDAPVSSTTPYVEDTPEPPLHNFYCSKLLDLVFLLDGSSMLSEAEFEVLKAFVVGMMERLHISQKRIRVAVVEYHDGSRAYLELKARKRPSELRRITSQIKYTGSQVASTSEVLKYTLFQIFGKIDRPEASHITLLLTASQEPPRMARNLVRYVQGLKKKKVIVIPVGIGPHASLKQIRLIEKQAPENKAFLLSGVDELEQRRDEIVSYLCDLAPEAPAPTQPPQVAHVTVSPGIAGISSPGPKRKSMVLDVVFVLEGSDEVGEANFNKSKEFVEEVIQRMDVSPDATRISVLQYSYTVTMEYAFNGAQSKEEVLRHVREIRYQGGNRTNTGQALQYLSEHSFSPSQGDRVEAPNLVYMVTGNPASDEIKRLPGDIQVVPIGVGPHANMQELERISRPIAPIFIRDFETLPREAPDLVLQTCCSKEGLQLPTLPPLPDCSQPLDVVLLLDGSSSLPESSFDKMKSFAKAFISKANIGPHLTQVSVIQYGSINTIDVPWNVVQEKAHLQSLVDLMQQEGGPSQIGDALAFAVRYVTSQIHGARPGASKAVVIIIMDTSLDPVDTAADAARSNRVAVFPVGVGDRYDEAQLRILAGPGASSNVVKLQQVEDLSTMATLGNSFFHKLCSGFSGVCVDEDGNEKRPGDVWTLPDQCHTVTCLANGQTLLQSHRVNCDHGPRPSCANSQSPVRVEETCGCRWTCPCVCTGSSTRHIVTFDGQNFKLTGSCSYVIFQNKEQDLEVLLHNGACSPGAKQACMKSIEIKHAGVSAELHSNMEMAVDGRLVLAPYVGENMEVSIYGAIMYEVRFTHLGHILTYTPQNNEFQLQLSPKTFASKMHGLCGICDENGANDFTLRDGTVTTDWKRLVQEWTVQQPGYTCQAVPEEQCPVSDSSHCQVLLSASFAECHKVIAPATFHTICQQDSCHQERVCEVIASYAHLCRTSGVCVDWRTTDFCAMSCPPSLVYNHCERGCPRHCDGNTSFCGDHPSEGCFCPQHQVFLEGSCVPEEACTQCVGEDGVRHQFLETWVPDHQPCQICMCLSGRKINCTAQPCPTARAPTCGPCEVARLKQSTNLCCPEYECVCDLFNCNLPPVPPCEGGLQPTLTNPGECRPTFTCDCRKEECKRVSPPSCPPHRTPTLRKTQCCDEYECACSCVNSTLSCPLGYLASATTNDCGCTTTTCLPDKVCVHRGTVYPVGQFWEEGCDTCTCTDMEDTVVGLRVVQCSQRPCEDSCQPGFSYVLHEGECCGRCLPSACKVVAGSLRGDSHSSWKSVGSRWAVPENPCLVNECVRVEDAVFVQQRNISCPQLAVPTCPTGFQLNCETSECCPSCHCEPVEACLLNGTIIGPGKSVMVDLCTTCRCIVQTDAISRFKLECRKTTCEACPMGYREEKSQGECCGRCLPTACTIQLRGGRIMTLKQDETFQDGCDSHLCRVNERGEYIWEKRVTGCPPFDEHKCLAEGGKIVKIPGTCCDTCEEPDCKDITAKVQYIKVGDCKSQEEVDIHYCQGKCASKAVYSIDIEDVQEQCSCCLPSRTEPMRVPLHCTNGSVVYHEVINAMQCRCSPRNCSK

This test concerns the target von Willebrand factor (Vwf) (mouse (endogenous in plasma)) (UniProt Q8CIZ8). The experiment in a line: SDS/agarose gel electrophoresis with immunoblot; plasma of WT and QSOX1 KO mice diluted 1:20, SDS/agarose gel, vacuum blot to PVDF, probed with rabbit anti-VWF. A general note: Immunoblotting shows a protein as a band on a membrane.

These are yes or no findings as the source states them, for the method shown. Some entries that bind do so weakly or less than the wild type.

Regarding “von Willebrand factor (Vwf) (from UniProt Q8CIZ8 764-2813)”, the binding entry was “binds”.
